This note sets out measurements from paper PMC10337854.

These are yes or no findings as the source states them, for the method shown. Binding seen in cells or lysates may run through a third protein. A yes stands for co-enrichment or nearness to the bait. Other partners may have been found.

The assay has as its target T1, Squamous cell carcinoma antigen recognized by T cells 3 (SART3) (human (endogenous in HCT116)) (UniProt Q15020).
T1 sequence: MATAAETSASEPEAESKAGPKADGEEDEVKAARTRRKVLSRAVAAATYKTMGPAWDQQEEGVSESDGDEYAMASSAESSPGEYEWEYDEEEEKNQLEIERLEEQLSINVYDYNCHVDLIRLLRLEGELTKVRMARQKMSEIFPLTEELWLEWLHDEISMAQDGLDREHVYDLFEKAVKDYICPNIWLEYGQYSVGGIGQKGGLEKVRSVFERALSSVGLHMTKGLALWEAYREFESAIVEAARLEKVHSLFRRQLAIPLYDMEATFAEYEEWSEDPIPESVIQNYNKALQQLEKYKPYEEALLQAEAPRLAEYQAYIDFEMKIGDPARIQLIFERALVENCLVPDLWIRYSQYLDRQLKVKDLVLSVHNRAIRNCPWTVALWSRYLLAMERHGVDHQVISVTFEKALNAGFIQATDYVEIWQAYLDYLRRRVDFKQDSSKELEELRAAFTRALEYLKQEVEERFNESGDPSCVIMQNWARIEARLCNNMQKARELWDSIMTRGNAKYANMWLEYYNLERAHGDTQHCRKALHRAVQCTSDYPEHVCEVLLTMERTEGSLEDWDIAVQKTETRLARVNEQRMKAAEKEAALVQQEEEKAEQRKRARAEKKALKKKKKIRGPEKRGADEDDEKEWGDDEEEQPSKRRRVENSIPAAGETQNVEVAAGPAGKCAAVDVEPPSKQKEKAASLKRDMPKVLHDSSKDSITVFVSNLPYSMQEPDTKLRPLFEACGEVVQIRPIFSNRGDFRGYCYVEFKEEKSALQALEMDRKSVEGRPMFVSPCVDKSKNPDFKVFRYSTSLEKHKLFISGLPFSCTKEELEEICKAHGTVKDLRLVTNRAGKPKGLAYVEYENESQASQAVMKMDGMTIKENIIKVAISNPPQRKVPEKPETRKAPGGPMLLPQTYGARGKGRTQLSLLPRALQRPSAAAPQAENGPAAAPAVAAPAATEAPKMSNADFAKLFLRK
Description: affinity purification with mass spectrometry; SART3 immunoprecipitated from HCT116 cell lysates; coprecipitated proteins analyzed by LC-MS/MS.

B1: USP4 (enzyme, UniProt Q13107 1-963)
chain: MAEGGGCRERPDAETQKSELGPLMRTTLQRGAQWYLIDSRWFKQWKKYVGFDSWDMYNVGEHNLFPGPIDNSGLFSDPESQTLKEHLIDELDYVLVPTEAWNKLLNWYGCVEGQQPIVRKVVEHGLFVKHCKVEVYLLELKLCENSDPTNVLSCHFSKADTIATIEKEMRKLFNIPAERETRLWNKYMSNTYEQLSKLDNTVQDAGLYQGQVLVIEPQNEDGTWPRQTLQSKSSTAPSRNFTTSPKSSASPYSSVSASLIANGDSTSTCGMHSSGVSRGGSGFSASYNCQEPPSSHIQPGLCGLGNLGNTCFMNSALQCLSNTAPLTDYFLKDEYEAEINRDNPLGMKGEIAEAYAELIKQMWSGRDAHVAPRMFKTQVGRFAPQFSGYQQQDSQELLAFLLDGLHEDLNRVKKKPYLELKDANGRPDAVVAKEAWENHRLRNDSVIVDTFHGLFKSTLVCPECAKVSVTFDPFCYLTLPLPLKKDRVMEVFLVPADPHCRPTQYRVTVPLMGAVSDLCEALSRLSGIAAENMVVADVYNHRFHKIFQMDEGLNHIMPRDDIFVYEVCSTSVDGSECVTLPVYFRERKSRPSSTSSASALYGQPLLLSVPKHKLTLESLYQAVCDRISRYVKQPLPDEFGSSPLEPGACNGSRNSCEGEDEEEMEHQEEGKEQLSETEGSGEDEPGNDPSETTQKKIKGQPCPKRLFTFSLVNSYGTADINSLAADGKLLKLNSRSTLAMDWDSETRRLYYDEQESEAYEKHVSMLQPQKKKKTTVALRDCIELFTTMETLGEHDPWYCPNCKKHQQATKKFDLWSLPKILVVHLKRFSYNRYWRDKLDTVVEFPIRGLNMSEFVCNLSARPYVYDLIAVSNHYGAMGVGHYTAYAKNKLNGKWYYFDDSNVSLASEDQIVTKAAYVLFYQRRDDEFYKTPSLSSSGSSDGGTRPSSSQQGFGDDEACSMDTN
On to B1, for which the binding entry is “binds”.

B2: ubiquitin-specific peptidase USP15 (enzyme, UniProt Q9Y4E8 1-981)
chain: MAEGGAADLDTQRSDIATLLKTSLRKGDTWYLVDSRWFKQWKKYVGFDSWDKYQMGDQNVYPGPIDNSGLLKDGDAQSLKEHLIDELDYILLPTEGWNKLVSWYTLMEGQEPIARKVVEQGMFVKHCKVEVYLTELKLCENGNMNNVVTRRFSKADTIDTIEKEIRKIFSIPDEKETRLWNKYMSNTFEPLNKPDSTIQDAGLYQGQVLVIEQKNEDGTWPRGPSTPKSPGASNFSTLPKISPSSLSNNYNNMNNRNVKNSNYCLPSYTAYKNYDYSEPGRNNEQPGLCGLSNLGNTCFMNSAIQCLSNTPPLTEYFLNDKYQEELNFDNPLGMRGEIAKSYAELIKQMWSGKFSYVTPRAFKTQVGRFAPQFSGYQQQDCQELLAFLLDGLHEDLNRIRKKPYIQLKDADGRPDKVVAEEAWENHLKRNDSIIVDIFHGLFKSTLVCPECAKISVTFDPFCYLTLPLPMKKERTLEVYLVRMDPLTKPMQYKVVVPKIGNILDLCTALSALSGIPADKMIVTDIYNHRFHRIFAMDENLSSIMERDDIYVFEININRTEDTEHVIIPVCLREKFRHSSYTHHTGSSLFGQPFLMAVPRNNTEDKLYNLLLLRMCRYVKISTETEETEGSLHCCKDQNINGNGPNGIHEEGSPSEMETDEPDDESSQDQELPSENENSQSEDSVGGDNDSENGLCTEDTCKGQLTGHKKRLFTFQFNNLGNTDINYIKDDTRHIRFDDRQLRLDERSFLALDWDPDLKKRYFDENAAEDFEKHESVEYKPPKKPFVKLKDCIELFTTKEKLGAEDPWYCPNCKEHQQATKKLDLWSLPPVLVVHLKRFSYSRYMRDKLDTLVDFPINDLDMSEFLINPNAGPCRYNLIAVSNHYGGMGGGHYTAFAKNKDDGKWYYFDDSSVSTASEDQIVSKAAYVLFYQRQDTFSGTGFFPLDRETKGASAATGIPLESDEDSNDNDNDIENENCMHTN
Consider B2, for which the binding result was “binds”.
